Data source: PubChem BioAssay AID1259297 (Sanger Institute, 2017)
Assay: 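Kinases whose loss kills cells on their own or with targeted drugs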 (primary screen). Cells: human RCM1 colorectal cancer cell line. Reagents: siRNA pool against human genes. Challenge: separate arms: DMSO vehicle, or one anchor drug at a mild dose: BYL719 1 µM, cetuximab 5 µg/ml, trametinib 10 nM. Measurement: 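Replicate-mean well viability as a share of non-targeting pool control, a robust z-score without drug, and synergy scores for BYL719, cetuximab and trametinib arms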. Scale: viability z-score, knock-down alone: higher = more viable cells than non-targeting controls; viability, knock-down alone (DMSO): higher = more viable cells; synergy score with trametinib: higher = stronger combined killing with trametinib; synergy score with BYL719: higher = stronger combined killing with BYL719; synergy score with cetuximab: higher = stronger combined killing with cetuximab. Hit rule: 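Essential when the viability robust z-score for knock-down alone is below -3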. Meaning of the calls: active = essential when knocked down alone; inactive = no clear loss of viability alone.
In all, the deposit lists 794 reagents; this is a random part of them. Of all reagents, 13 (1.6%) are marked active. 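Calls reflect knock-down without drug only; drug synergy is judged separately, with scores above 0.15 counted as synergy.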 Unmarked entries are inactive. No viability above 1 is reported: the scale is capped. Not stated in the record: the amount of reagent, the time to read-out.

gene knocked down	viability z-score, knock-down alone	viability, knock-down alone (DMSO) (fraction of control)	synergy score with trametinib	synergy score with BYL719	synergy score with cetuximab
IRAK1 (GeneID 3654)	-0.0634	0.911	0.155	-0.102	-0.197
MECOM (GeneID 2122)	0.879	0.998	-0.0146	0.0132	-0.12
NME1 (GeneID 4830)	0.9	1	-0.214	-0.0728	-0.118
CDC42BPA (GeneID 8476)	-0.961	0.827	0.0393	-0.0141	-0.0387
TNNI3K (GeneID 51086)	-0.241	0.894	-0.043	-0.148	-0.212
CALM2 (GeneID 805)	-1.22	0.803	0.0292	-0.0857	0.00547
CDK15 (GeneID 65061)	0.265	0.941	-0.015	-0.0818	-0.17
MAP4K3 (GeneID 8491)	-0.0931	0.908	-0.0251	0.0142	-0.0932
PHKG2 (GeneID 5261)	0.9	1	-0.0984	-0.0432	-0.0908
CAMK2A (GeneID 815)	-1.12	0.812	-0.0765	-0.0371	-0.143
MAP3K5 (GeneID 4217)	0.134	0.929	0.0701	0.000743	-0.0159
PRKACG (GeneID 5568)	0.0235	0.919	0.00929	-0.135	-0.138
MINK1 (GeneID 50488)	-0.994	0.824	-0.00193	-0.0462	-0.0348
NUP98 (GeneID 4928)	-3.88 (active)	0.556	-0.0292	-0.0547	0.0681
PIK3R2 (GeneID 5296)	0.378	0.952	0.0321	-0.0205	-0.161
AK5 (GeneID 26289)	0.592	0.971	-0.104	0.0321	-0.143
CSNK2A2 (GeneID 1459)	-2.06	0.725	0.0739	0.0115	0.0154
TGFBR3 (GeneID 7049)	-0.278	0.891	-0.0689	-0.174	-0.135
PIK3C2G (GeneID 5288)	-1.69	0.759	-0.0206	0.02	0.0487
PRKCI (GeneID 5584)	0.101	0.926	0.125	0.0339	0.0432

Part of the list above, set out differently:
{"gene knocked down": "PIK3R2 (GeneID 5296)", "viability z-score, knock-down alone": 0.378, "viability, knock-down alone (DMSO) (fraction of control)": 0.952, "synergy score with trametinib": 0.0321, "synergy score with BYL719": -0.0205, "synergy score with cetuximab": -0.161}
{"gene knocked down": "AK5 (GeneID 26289)", "viability z-score, knock-down alone": 0.592, "viability, knock-down alone (DMSO) (fraction of control)": 0.971, "synergy score with trametinib": -0.104, "synergy score with BYL719": 0.0321, "synergy score with cetuximab": -0.143}
